Measured values: PMC8274477
Results are given in words; binding and its absence hold for the method and conditions named. Some binding calls cover weakened binding; strength is not graded here.

Sequences of proteins named here, by UniProt entry; tags and fusion partners are left off. Residues count along the entry.
UniProt Q7Z2E3: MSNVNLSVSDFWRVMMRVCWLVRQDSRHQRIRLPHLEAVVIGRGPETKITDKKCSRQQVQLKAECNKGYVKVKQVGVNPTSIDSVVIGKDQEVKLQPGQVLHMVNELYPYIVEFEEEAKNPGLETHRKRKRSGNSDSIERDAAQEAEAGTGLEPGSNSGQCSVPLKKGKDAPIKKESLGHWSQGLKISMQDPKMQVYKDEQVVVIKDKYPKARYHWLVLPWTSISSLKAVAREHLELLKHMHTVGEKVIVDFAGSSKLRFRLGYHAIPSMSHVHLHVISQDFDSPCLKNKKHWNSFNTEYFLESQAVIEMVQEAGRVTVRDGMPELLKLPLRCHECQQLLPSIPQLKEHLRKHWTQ
UniProt P27361: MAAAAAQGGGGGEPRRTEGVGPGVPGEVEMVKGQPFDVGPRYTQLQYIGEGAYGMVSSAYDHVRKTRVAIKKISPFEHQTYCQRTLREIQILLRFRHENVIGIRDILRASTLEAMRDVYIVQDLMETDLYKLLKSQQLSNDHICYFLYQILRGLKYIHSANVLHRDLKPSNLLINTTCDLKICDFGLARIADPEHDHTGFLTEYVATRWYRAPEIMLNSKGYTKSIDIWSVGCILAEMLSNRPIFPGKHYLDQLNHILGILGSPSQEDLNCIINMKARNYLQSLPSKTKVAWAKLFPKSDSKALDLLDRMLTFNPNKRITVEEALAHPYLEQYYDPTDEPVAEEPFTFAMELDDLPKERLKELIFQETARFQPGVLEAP
UniProt Q9UKM9: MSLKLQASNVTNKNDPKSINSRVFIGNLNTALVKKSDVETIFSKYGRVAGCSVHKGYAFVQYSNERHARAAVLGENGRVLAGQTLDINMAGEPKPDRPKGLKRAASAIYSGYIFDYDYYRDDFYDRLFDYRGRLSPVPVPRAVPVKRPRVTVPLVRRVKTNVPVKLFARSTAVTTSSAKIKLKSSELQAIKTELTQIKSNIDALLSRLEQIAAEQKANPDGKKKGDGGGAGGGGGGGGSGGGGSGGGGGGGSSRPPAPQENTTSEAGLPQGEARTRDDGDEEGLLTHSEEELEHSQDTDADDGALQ
UniProt Q9NQH7, residues 32-507: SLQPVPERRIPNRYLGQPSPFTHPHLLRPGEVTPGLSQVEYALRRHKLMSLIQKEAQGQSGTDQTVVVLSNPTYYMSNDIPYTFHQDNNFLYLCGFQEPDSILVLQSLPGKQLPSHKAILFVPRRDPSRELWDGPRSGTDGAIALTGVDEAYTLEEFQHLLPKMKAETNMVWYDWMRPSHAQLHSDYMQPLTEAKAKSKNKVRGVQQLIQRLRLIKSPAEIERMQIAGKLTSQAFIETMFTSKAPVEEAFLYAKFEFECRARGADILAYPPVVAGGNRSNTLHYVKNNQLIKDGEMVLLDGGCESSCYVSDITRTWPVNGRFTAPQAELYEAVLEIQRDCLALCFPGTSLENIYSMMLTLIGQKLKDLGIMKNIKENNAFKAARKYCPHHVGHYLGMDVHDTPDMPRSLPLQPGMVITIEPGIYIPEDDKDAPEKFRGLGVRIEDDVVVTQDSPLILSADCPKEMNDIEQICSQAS

Assays:
Test in all cases: peptide or protein array; HuProt human proteome microarray; 5 ug/5 ml biotin-labelled LUBAC or OTULIN in solution, 1 h at room temperature; Cy5-streptavidin, scanned at 635 nm; BSA as negative control; hits: Z-score >= 3 and I_(Mean_Ratio) >= 1.4; both purified
ADAT3 (human) = molecular target: T1, ADAT3 (human) (UniProt Q96EY9)
T1 sequence: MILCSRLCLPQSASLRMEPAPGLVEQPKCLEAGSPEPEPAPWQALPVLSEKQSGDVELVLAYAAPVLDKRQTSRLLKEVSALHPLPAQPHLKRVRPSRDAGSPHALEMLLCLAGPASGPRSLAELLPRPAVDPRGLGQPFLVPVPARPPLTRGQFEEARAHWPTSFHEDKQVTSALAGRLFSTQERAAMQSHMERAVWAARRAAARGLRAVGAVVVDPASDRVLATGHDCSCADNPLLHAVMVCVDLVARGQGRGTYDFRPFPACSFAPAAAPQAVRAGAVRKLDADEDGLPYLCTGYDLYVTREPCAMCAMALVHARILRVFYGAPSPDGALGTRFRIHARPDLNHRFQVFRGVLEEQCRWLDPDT

APTX (human) = APTX (human) (UniProt Q7Z2E3)
GBGT1 (human) = molecular target: T2, GBGT1 (human) (UniProt Q8N5D6)
T2 sequence: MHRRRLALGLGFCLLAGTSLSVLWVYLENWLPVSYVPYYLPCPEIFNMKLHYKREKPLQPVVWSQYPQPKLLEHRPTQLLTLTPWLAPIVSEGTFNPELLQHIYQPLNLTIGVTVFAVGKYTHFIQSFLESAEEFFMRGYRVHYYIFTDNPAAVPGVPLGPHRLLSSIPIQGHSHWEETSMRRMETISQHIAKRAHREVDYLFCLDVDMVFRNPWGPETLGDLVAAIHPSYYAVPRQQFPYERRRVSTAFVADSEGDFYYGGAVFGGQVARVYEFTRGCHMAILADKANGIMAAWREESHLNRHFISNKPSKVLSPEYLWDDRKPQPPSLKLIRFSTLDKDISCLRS

MAPK3 (human) = MAPK3 (human) (UniProt P27361)
RALY (human) = RALY (human) (UniProt Q9UKM9)
TRMT2A (human) = molecular target: T3, TRMT2A (human) (UniProt Q8IZ69)
T3 sequence: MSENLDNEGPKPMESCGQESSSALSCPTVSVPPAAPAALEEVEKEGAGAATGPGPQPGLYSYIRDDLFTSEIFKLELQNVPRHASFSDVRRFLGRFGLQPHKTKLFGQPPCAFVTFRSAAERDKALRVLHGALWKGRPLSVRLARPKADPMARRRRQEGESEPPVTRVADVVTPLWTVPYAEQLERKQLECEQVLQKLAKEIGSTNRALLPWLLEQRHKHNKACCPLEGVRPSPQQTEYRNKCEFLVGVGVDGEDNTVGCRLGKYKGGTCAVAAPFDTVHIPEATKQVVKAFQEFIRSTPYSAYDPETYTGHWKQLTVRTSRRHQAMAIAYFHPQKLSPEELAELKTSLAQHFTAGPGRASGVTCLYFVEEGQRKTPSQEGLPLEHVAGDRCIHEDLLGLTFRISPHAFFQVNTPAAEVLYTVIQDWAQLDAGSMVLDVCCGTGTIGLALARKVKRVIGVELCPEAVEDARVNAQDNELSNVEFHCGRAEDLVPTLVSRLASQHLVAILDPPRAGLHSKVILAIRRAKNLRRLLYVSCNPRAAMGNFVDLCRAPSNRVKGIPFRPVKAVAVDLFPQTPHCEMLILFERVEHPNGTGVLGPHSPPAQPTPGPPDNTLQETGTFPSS

XPNPEP3 (human) = XPNPEP3 (human) (UniProt Q9NQH7)
ZNF385A (human) = molecular target: T4, ZNF385A (human) (UniProt Q96PM9)
T4 sequence: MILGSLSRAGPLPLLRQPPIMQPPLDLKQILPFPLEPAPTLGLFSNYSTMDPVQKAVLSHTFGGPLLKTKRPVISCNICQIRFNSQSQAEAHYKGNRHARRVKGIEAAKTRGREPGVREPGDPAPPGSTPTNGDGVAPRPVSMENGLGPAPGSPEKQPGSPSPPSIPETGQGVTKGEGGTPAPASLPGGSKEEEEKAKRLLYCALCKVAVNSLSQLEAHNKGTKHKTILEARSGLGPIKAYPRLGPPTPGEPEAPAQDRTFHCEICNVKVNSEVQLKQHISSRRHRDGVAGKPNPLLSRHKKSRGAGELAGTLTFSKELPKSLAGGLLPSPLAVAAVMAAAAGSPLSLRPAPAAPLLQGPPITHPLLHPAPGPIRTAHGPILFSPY

Measured: binding

linear ubiquitin chain assembly complex (LUBAC), purified as HIS-tagged HOIP with the subunit HOIL-1, biotin-labelled (from UniProt Q96EP0 1-1072; Q9BYM8 1-510)
binds: all assays above
